Data source: PubChem BioAssay AID1508597 (Cure First, 2020)

Purpose: 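Genes whose silencing sensitises or protects ovarian cancer cells against rucaparib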 (primary screen)
Cell system: human ovarian carcinoma lines grown from tumours: OCI-P5x (papillary serous) and OCI-C5x (clear cell)
Reagents: siRNA pool against human genes, 1.25 pmol siRNA per well
Time to read-out: 72 h or 96 h, depending on the cell culture
Conditions: rucaparib 20 µM (about IC30) or vehicle, present until read-out
Rucaparib or vehicle: Rucaparib
Cell line: OCI-P5x (serous)
Read-out: 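ATP luminescence measured at 72 or 96 h according to the culture, then normalised and expressed as percent viability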
Reading the numbers: viability, normalised: higher = more viable cells remaining
Call rule: 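a well counts as a hit if its normalised viability is under 80 percent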
Calls: active = viability under 80%; inactive = viability 80% or more
Shown is an unselected part of the about 2,100 reagents, under one of the conditions tested. 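Calls flag viability under 80% in either arm, not effects specific to rucaparib; the reference for percent is not stated.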 Some reagents were tested in more than one well and are listed for each. The record does not give: the 100% reference.

CHEK1 (GeneID 1111), technical replicate 1 | viability, normalised (%): 66.5; outcome: active
CHEK1 (GeneID 1111), technical replicate 1 | viability, normalised (%): 50.9; outcome: active
CHEK1 (GeneID 1111), technical replicate 2 | viability, normalised (%): 38.2; outcome: active
CHEK1 (GeneID 1111), technical replicate 2 | viability, normalised (%): 59.6; outcome: active
CHEK1 (GeneID 1111), technical replicate 3 | viability, normalised (%): 60.5; outcome: active
CHEK1 (GeneID 1111), technical replicate 3 | viability, normalised (%): 52.4; outcome: active
PIK3CA (GeneID 5290), technical replicate 1 | viability, normalised (%): 76.9; outcome: active
PIK3CA (GeneID 5290), technical replicate 1 | viability, normalised (%): 99.1; outcome: inactive
PIK3CA (GeneID 5290), technical replicate 2 | viability, normalised (%): 90.5; outcome: inactive
PIK3CA (GeneID 5290), technical replicate 2 | viability, normalised (%): 82.6; outcome: inactive
PIK3CA (GeneID 5290), technical replicate 3 | viability, normalised (%): 107; outcome: inactive
PIK3CA (GeneID 5290), technical replicate 3 | viability, normalised (%): 76.9; outcome: active
CAMKK2 (GeneID 10645), technical replicate 1 | viability, normalised (%): 82.7; outcome: inactive
CAMKK2 (GeneID 10645), technical replicate 2 | viability, normalised (%): 74.1; outcome: active
CAMKK2 (GeneID 10645), technical replicate 3 | viability, normalised (%): 88.9; outcome: inactive
SKIC2 (GeneID 6499), technical replicate 1 | viability, normalised (%): 47.1; outcome: active
SKIC2 (GeneID 6499), technical replicate 2 | viability, normalised (%): 52.4; outcome: active
SKIC2 (GeneID 6499), technical replicate 3 | viability, normalised (%): 50.7; outcome: active
FANCG (GeneID 2189), technical replicate 1 | viability, normalised (%): 130; outcome: inactive
FANCG (GeneID 2189), technical replicate 2 | viability, normalised (%): 130; outcome: inactive
FANCG (GeneID 2189), technical replicate 3 | viability, normalised (%): 119; outcome: inactive
